Source: paper PMC11024185
Results are given in words; binding and its absence hold for the method and conditions named. In cells and extracts the contact can be indirect. These calls come from enrichment with a bait or labelling near it, and not all partners need be listed. For some assays here: Where a sequence is shown, tags or fusion partners need not be part of it.

Sequences of proteins named here, by UniProt entry; tags and fusion partners are left off.
UniProt P14126: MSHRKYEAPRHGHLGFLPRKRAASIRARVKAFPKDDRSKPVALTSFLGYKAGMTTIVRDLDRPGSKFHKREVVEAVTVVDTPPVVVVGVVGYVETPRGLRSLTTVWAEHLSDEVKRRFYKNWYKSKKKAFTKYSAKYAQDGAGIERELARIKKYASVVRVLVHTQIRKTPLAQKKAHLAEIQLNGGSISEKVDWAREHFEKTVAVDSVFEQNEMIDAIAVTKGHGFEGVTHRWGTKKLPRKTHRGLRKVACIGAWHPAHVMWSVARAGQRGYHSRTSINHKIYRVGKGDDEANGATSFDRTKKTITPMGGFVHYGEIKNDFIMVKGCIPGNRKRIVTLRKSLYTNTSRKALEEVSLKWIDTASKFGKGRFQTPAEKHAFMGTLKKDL
UniProt Q06205: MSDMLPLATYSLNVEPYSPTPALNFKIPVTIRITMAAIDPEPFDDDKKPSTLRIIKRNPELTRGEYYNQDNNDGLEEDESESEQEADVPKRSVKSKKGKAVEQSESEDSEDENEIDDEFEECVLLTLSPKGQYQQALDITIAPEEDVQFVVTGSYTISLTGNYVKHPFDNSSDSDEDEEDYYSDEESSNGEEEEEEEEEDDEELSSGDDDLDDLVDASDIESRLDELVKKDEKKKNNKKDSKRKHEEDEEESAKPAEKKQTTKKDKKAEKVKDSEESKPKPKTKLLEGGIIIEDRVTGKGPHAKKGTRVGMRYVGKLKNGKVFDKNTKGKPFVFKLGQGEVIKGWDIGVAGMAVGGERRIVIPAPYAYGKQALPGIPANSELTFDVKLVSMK
UniProt Q03532: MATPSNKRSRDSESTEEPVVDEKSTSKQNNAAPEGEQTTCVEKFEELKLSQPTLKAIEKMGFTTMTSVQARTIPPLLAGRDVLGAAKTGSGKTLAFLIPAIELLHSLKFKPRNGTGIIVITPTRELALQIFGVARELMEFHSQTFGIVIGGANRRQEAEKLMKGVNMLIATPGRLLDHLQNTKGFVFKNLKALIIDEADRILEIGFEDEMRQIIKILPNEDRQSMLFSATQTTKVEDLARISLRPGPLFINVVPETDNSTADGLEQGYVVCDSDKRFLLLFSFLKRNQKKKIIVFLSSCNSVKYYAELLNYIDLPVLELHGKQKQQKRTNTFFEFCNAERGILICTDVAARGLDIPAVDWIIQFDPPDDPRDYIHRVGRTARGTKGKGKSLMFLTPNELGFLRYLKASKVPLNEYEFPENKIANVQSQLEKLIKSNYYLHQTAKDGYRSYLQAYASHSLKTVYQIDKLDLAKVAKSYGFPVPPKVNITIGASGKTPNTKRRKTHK
UniProt P40007: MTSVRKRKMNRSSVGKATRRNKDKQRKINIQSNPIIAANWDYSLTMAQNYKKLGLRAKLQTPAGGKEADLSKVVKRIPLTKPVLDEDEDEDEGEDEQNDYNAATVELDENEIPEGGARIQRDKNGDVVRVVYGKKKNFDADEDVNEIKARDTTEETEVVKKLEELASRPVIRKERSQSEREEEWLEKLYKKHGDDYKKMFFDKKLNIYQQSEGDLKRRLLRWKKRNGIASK

Experiments:
[1] = target: T1, Dbp10 (2xStrep-bdNEDD8-DBP10) (S. cerevisiae) (UniProt Q12389); assay: affinity purification with mass spectrometry; split-tag purification of pre-60S particles from steady state DBP10 yeast: IgG Sepharose on Ssf1-2xProteinA, 3C cleavage, then Strep-Tactin on 2xStrep-Dbp10, desthiobiotin elution; buffers with 50 µM ADP-BeF3; Coomassie-stained 4-20% SDS-PAGE, bands named by molecular weight, ambiguous bands by mass spectrometry
T1 sequence: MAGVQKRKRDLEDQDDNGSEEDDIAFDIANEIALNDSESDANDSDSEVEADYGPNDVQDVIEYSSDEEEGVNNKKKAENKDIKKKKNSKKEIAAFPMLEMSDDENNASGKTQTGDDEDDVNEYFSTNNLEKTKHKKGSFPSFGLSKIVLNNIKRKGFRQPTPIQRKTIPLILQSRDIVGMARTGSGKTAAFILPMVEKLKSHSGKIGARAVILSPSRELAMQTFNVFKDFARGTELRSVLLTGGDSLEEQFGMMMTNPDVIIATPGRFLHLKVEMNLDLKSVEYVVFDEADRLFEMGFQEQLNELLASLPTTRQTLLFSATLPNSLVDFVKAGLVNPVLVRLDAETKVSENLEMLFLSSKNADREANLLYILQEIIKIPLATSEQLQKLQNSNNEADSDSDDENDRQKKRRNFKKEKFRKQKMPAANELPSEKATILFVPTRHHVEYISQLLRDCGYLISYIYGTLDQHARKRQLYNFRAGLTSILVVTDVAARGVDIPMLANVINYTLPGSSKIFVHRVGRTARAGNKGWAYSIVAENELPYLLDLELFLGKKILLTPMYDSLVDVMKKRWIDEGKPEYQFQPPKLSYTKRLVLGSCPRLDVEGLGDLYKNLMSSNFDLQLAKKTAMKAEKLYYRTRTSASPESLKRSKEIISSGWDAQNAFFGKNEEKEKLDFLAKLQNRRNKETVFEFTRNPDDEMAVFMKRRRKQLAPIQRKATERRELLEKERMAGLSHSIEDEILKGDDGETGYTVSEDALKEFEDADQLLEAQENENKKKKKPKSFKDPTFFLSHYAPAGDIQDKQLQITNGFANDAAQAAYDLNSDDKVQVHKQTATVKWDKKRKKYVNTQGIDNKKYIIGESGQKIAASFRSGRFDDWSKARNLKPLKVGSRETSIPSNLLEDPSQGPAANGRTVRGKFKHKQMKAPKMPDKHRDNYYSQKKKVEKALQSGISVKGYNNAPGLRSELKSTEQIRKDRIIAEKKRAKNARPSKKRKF

[2] = target: T2, Ssf1-3xFLAG-3C-2xProteinA (S. cerevisiae) (UniProt P38789); assay: as above
T2 sequence: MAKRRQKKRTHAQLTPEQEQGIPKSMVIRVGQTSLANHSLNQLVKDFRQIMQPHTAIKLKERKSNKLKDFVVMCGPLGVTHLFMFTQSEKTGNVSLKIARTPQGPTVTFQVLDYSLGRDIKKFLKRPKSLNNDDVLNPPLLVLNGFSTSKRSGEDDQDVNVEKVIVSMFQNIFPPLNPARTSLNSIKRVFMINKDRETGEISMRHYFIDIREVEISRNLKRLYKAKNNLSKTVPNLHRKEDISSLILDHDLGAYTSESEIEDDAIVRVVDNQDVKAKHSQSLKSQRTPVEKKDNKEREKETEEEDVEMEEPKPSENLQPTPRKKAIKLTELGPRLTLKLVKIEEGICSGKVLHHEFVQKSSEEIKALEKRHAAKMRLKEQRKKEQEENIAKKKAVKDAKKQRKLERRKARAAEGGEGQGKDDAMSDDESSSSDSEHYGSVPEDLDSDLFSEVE

[3] = target: T1, Dbp10 (2xStrep-bdNEDD8-DBP10) (S. cerevisiae); assay: affinity purification with mass spectrometry; split-tag purification of pre-60S particles from SPB4-AID yeast without and with auxin (0.5 mM IAA, 45 min): IgG Sepharose on Noc2-2xProteinA, 3C cleavage, then Strep-Tactin on 2xStrep-Dbp10; buffers with 50 µM ADP-BeF3; Coomassie-stained 4-20% SDS-PAGE, bands named by molecular weight, ambiguous bands by mass spectrometry; auxin gave ~10-fold enrichment of the particle
[4] = target: T3, Noc2-3xFLAG-3C-2xProteinA (S. cerevisiae) (UniProt P39744); assay: as above
T3 sequence: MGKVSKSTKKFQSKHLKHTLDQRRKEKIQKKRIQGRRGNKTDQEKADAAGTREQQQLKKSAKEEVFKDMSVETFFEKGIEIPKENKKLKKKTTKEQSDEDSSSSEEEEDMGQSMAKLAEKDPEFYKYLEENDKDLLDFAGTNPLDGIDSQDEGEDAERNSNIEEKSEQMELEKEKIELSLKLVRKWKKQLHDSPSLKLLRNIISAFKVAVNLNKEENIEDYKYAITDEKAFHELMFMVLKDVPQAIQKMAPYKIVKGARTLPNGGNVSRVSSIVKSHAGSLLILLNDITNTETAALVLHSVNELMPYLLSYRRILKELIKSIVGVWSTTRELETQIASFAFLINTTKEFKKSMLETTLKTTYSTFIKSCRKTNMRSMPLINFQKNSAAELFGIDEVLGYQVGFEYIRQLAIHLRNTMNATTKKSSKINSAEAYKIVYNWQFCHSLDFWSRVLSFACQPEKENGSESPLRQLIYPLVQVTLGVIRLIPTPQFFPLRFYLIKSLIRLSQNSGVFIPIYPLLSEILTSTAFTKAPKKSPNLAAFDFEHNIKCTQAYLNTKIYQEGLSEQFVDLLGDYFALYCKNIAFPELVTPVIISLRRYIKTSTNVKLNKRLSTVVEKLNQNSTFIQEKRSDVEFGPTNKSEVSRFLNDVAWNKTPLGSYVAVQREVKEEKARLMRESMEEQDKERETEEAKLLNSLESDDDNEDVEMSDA

Measured: binding

uL3 (from UniProt P14126 1-387)
binds: all assays above

uL4 (S. cerevisiae (endogenous in yeast))
binds: [1] | [2] | [3]

Fpr4 (from UniProt Q06205 1-392)
binds: all assays above

Has1 (from UniProt Q03532 1-505) (enzyme)
binds: all assays above

Nop16 (from UniProt P40007 1-231)
binds: all assays above

B1: Ytm1 (protein, UniProt Q12024 1-460)
chain: MTEDKSQVKIRFFTREKDELLHVQDTPMYAPISLKRYGLSEIVNHLLGSEKPVPFDFLIEGELLRTSLHDYLTKKGLSSEASLNVEYTRAILPPSYLNSFSNEDWVSSLDVGDGSKHIISGSYDGIVRTWDLSGNVQKQYSGHSGPIRAVKYISNTRLVSAGNDRTLRLWKTKNDDLKLTSQQQAQEDDDDEVNIEDGKTLAILEGHKAPVVSIDVSDNSRILSASYDNSIGFWSTIYKEMTVVDPLEDINNPNNKISTAARKRRKLTMKDGTIRRRAPLSLLESHTAPVEQVIFDSTDNTVGYSVSQDHTIKTWDLVTARCIDTRTTSYSLLSIAQLSTLNLLACGSSARHITLHDPRVGASSKVTQQQLIGHKNFVSSLDTCPENEYILCSGSHDGTVKVWDVRSTSPMYTITREDKSVQKGVNDKVFAVKWAEKVGIISAGQDKKIQINKGDNIFKN
binds: all assays above

B2: Mak16 (protein, UniProt P10962 1-306)
chain: MSDEIVWQVINQSFCSHRIKAPNGQNFCRNEYNVTGLCTRQSCPLANSKYATVKCDNGKLYLYMKTPERAHTPAKLWERIKLSKNYTKALQQIDEHLLHWSKFFRHKCKQRFTKLTQVMITERRLALREEERHYVGVAPKVKRREQNRERKALVAAKIEKAIEKELMDRLKSGAYGDKPLNVDEKVWKKIMGQMEEENSQDEEEDWDEEEESDDGEVEYVADDGEGEYVDVDDLEKWLADSDREASSASESESDSESESDSDSDEENKNSAKRRKKGTSAKTKRPKVEIEYEEEHEVQNAEQEVAQ
binds: [1] | [2]

B3: Rpf2 (protein, UniProt P36160 1-344)
chain: MIRTVKPKNARAKRALVKREAKLVENVKQALFIPGQSCNKNLHDIMVDLSALKKPDMKRFNRKNDIHPFEDMSPLEFFSEKNDCSLMVLMTSSKKRKNNMTFIRTFGYKIYDMIELMVADNFKLLSDFKKLTFTVGLKPMFTFQGAAFDTHPVYKQIKSLFLDFFRGESTDLQDVAGLQHVISMTIQGDFQDGEPLPNVLFRVYKLKSYKSDQGGKRLPRIELVEIGPRLDFKIGRIHTPSPDMVTEAHKKPKQLEMKTKKNVELDIMGDKLGRIHMGKQDLGKLQTRKMKGLKSKFDQGTEEGDGEVDEDYEDEASYSDDGQEYEEEFVSATDIEPSAKRQKK
binds: all assays above

B4: Rlp7 (protein, UniProt P40693 1-322)
chain: MSSTQDSKAQTLNSNPEILLRKRRNADRTRIERQELAKKKREEQIKKKRSNKNKFVRAESIVAKTLATSREKERIKRVSILEDKKAKNETQHIASGKDFILKITEKANGAEENSVDLEETEEEEDDGLIREKTTYDGKPALLFIVRVRGPLAVNIPNKAFKILSLLRLVETNTGVFVKLTKNVYPLLKVIAPYVVIGKPSLSSIRSLIQKRGRIIYKGENEAEPHEIVLNDNNIVEEQLGDHGIICVEDIIHEIATMGESFSVCNFFLQPFKLNREVSGFGSLNRLRKIKQREAESRTRQFSNAATAPVIEVDIDSLLAKLN
binds: all assays above

B5: uL18 (protein, UniProt P26321 1-297)
chain: MAFQKDAKSSAYSSRFQTPFRRRREGKTDYYQRKRLVTQHKAKYNTPKYRLVVRFTNKDIICQIISSTITGDVVLAAAYSHELPRYGITHGLTNWAAAYATGLLIARRTLQKLGLDETYKGVEEVEGEYELTEAVEDGPRPFKVFLDIGLQRTTTGARVFGALKGASDGGLYVPHSENRFPGWDFETEEIDPELLRSYIFGGHVSQYMEELADDDEERFSELFKGYLADDIDADSLEDIYTSAHEAIRADPAFKPTEKKFTKEQYAAESKKYRQTKLSKEERAARVAAKIAALAGQQ
binds: all assays above

B6: Rrp1 (protein, UniProt P35178 1-278)
chain: METSNFVKQLSSNNRKTRVNALEALKKYLTAKQFKENKQIEFNKLWKGLYYAMWFSDRPRPQQRLANELGELHGLYFDPKDNSTADELTTNDKAFIKFSRGFWKVMCFEWFNIDRYRLDKYLLLIRRVLFSQLKYLQSRNWDKKLVDEYIKKVLRWLPLSGSPKVYTGIPIHIVDILLDEWERLLKDGDEDDEDEENKEEEMRKIAESAKKTPLADVIAIFQDIVADYNNSKVLREKIKEDLFSDTRLVSWDILEGETQHNDSSNESEEEEEEEWKGF
binds: [1] | [2]

B7: Rpf1 (protein, UniProt P38805 1-295)
chain: MALGNEINITNKLKRQEIFADIKHEKNKERHTMRRKRAKEERENPELREQRLKENVTQTIENTRVYDETINKEVEGDEDDLMRYFNSNSNEPPKIFLTTNVNAKKSAYEFANILIEILPNVTFVKRKFGYKLKEISDICIKRNFTDIVIINEDKKKVTGLTFIHLPEGPTFYFKLSSFVEVKKIVGHGRPTSHIPELILNNFQTRLGQTVGRLFQSILPQNPDIEGRQVITLHNQRDYIFFRRHRYVFKDNERVGLQELGPQFTLKLKRLQRGIKEETEWEHKPEMDKEKKKFYL
binds: [1] | [2]
